PubChem BioAssay AID493246 | Drosophila RNAi Screening Center – 2011

Test: 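Genome-wide search for dsRNAs that reduce cell number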 (primary screen)
System: Drosophila Kc and S2R+ cells
Knock-down reagent: long dsRNA against Drosophila genes
Read-out: 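Raw, unnormalised count of remaining cells in each well; per-plate z-scores of cell number underlie the calls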
Scale: Kc cell number and S2R+ cell number: higher = more cells remaining
Call rule: 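Active when the per-plate z-score of cell number is 3 or more in the direction of fewer cells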
The screen tested about 21,000 reagents; below is a random part of those with a known target gene and a result. Of all reagents, 429 (2%) were called active. 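Values are raw and not normalised between plates; calls rest on per-plate z-scores that were not deposited.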 Entries without a mark were called inactive. Not given: the amount of reagent, the time to read-out.

no.	gene knocked down	dsRNA	Kc cell number, rep 1	Kc cell number, rep 2	S2R+ cell number, rep 1	S2R+ cell number, rep 2
1	Mps1 (Monopolar spindle 1)	DRSC16273	1.72e6	1.69e6	1.30e6	1.36e6
2	Cka (Connector of kinase to AP-1)	DRSC03476	1.68e6	1.80e6	1.14e6	1.31e6
3	for (foraging)	DRSC00195	1.38e6	1.37e6	8.88e5	1.05e6
4	for (foraging)	DRSC00818	1.31e6	1.65e6	1.25e6	1.12e6
5	CG12862	DRSC06202	1.57e6	1.52e6	1.16e6	1.26e6
6	CG32037	DRSC10363	1.39e6	1.28e6	1.23e6	1.34e6
7	CG31436	DRSC14661	1.63e6	1.77e6	1.08e6	1.17e6
8	CG10053	DRSC12502	1.66e6	1.72e6	1.41e6	1.53e6
9	gammaTub23C (gamma-Tubulin at 23C)	DRSC00820	1.33e6	1.36e6	1.03e6	1.16e6
10	Arc1 (Activity-regulated cytoskeleton associated protein 1)	DRSC06159	1.41e6	1.46e6	1.05e6	1.14e6
11	CG15071	DRSC06504	1.61e6	1.62e6	1.17e6	1.32e6
12	CG32148	DRSC09338	1.43e6	1.54e6	1.10e6	1.24e6
13	sdk (sidekick)	DRSC18831	5.15e5		8.24e5	
14	CG9582	DRSC03267	1.54e6	1.58e6	1.12e6	1.32e6
15	Lip3 (Lipase 3)	DRSC16727	1.42e6	1.38e6	1.08e6	1.21e6
16	Toll-7	DRSC07563	1.61e6	1.60e6	1.16e6	1.32e6
17	slp1 (sloppy paired 1)	DRSC00835	1.38e6	1.39e6	1.01e6	1.04e6
18	MED4 (Mediator complex subunit 4)	DRSC11014	1.44e6	1.49e6	1.13e6	1.08e6
19	eas (easily shocked)	DRSC20329	1.66e6	1.65e6	1.17e6	1.34e6
20	ACC (Acetyl-CoA carboxylase)	DRSC06059	8.56e5 (active)	1.02e6	7.23e5	8.98e5
21	ACC (Acetyl-CoA carboxylase)	DRSC07249	1.07e6	1.11e6	9.15e5	9.75e5
22	Cpr47Eb (Cuticular protein 47Eb)	DRSC06345	1.58e6	1.58e6	1.31e6	1.37e6
23	Sec61gamma (Sec61 gamma subunit)	DRSC19570	1.42e6	1.50e6	1.13e6	1.24e6
24	Cyp28d1 (Cytochrome P450 28d1)	DRSC03298	1.37e6	1.40e6	6.56e5	8.22e5
25	BBS9 (Bardet-Biedl syndrome 9)	DRSC04257	1.66e6	1.83e6	1.45e6	3.66e5
26	Lk6 (Lk6 kinase)	DRSC12867	1.42e6	1.68e6	9.94e5	1.22e6
27	Lk6 (Lk6 kinase)	DRSC16728	1.52e6	1.58e6	1.10e6	1.16e6
28	lky (leaky)	DRSC20682	1.48e6	1.50e6	1.08e6	1.18e6
29	TER94 (Transitional endoplasmic reticulum 94)	DRSC07560	1.03e6	1.18e6	9.96e5	1.06e6
30	Tpl94D (Transition protein-like 94D)	DRSC13593	1.69e6	1.62e6	1.11e6	1.26e6
31	CG4511	DRSC15589	1.44e6	1.49e6	1.31e6	1.39e6
32	Fum3 (Fumarase 3)	DRSC10592	1.26e6	1.29e6	1.26e6	1.30e6
33	CG12402	DRSC14508	1.14e6	1.19e6	1.23e6	1.52e6
34	CG5697	DRSC15858	1.43e6	1.58e6	1.06e6	1.20e6
35	l(1)10Bb (lethal (1) 10Bb)	DRSC20346	1.50e6	1.48e6	9.44e5	1.04e6

An excerpt taken from the entries so far, as a working copy:
no.	gene knocked down	dsRNA	Kc cell number, rep 1	Kc cell number, rep 2	S2R+ cell number, rep 1	S2R+ cell number, rep 2
29	TER94 (Transitional endoplasmic reticulum 94)	DRSC07560	1.03e6	1.18e6	9.96e5	1.06e6
30	Tpl94D (Transition protein-like 94D)	DRSC13593	1.69e6	1.62e6	1.11e6	1.26e6
31	CG4511	DRSC15589	1.44e6	1.49e6	1.31e6	1.39e6
32	Fum3 (Fumarase 3)	DRSC10592	1.26e6	1.29e6	1.26e6	1.30e6
33	CG12402	DRSC14508	1.14e6	1.19e6	1.23e6	1.52e6
34	CG5697	DRSC15858	1.43e6	1.58e6	1.06e6	1.20e6

Further reagents follow.
no.	gene knocked down	dsRNA	Kc cell number, rep 1	Kc cell number, rep 2	S2R+ cell number, rep 1	S2R+ cell number, rep 2
36	CG17196	DRSC15189	1.76e6	1.70e6	1.03e6	1.14e6
37	CG14154	DRSC10156	1.46e6	1.45e6	1.24e6	1.27e6
38	CG4269	DRSC04457	1.58e6	1.63e6	1.26e6	1.39e6
39	CG2157	DRSC19836	1.57e6	1.52e6	1.03e6	1.17e6
40	CG4927	DRSC06903	1.64e6	1.71e6	1.28e6	1.49e6
41	hob (hobbit)	DRSC08426	1.42e6	1.44e6	1.08e6	1.02e6
42	Jon74E (Jonah 74E)	DRSC10617	1.42e6	1.48e6	1.16e6	1.29e6
43	CG13510	DRSC04152	1.54e6	1.58e6	1.36e6	1.27e6
44	GILT3 (Gamma-interferon-inducible lysosomal thiol reductase 3)	DRSC14672	1.59e6	1.59e6	9.61e5	1.05e6
45	CG31278	DRSC16051	1.32e6	1.33e6	1.27e6	1.32e6
46	IRSp53 (Insulin receptor substrate 53 kDa)	DRSC10891	1.37e6	1.31e6	1.11e6	1.25e6
47	mRpL40 (mitochondrial ribosomal protein L40)	DRSC15749	1.36e6	1.43e6	1.03e6	1.09e6
48	Idgf1 (Imaginal disc growth factor 1)	DRSC03349	1.29e6	1.40e6	1.37e6	1.39e6
49	Cdc37 (Cell division cycle 37)	DRSC08648	1.50e6	6.65e5	1.09e6	1.15e6
50	CG7668	DRSC10901	1.55e6	1.58e6	1.31e6	1.34e6
51	nSMase (neutral sphingomyelinase)	DRSC08237	1.43e6	1.50e6	1.25e6	1.19e6
52	CG7488	DRSC16250	1.26e6	1.16e6	9.57e5	1.00e6
53	cocoon	DRSC10916	1.40e6	1.57e6	1.34e6	1.42e6
54	Nulp1 (Nuclear localized protein 1)	DRSC09677	1.43e6	1.48e6	1.35e6	1.23e6
55	CG11313	DRSC14295	1.75e6	1.81e6	1.10e6	1.20e6
56	Rep (Rab escort protein)	DRSC07526	1.38e6	1.35e6	1.12e6	1.14e6
57	CG3739	DRSC15510	1.40e6	1.34e6	1.12e6	1.23e6
58	Tbca (Tubulin binding cofactor A)	DRSC15395	4.84e5		8.04e5	
59	CG12343	DRSC06135	1.66e6	1.70e6	1.22e6	1.39e6
